Measurements reported in PubChem BioAssay AID256 (DTP/NCI, 2004).
The list shows only some results of the screen, not a fair sample: it is rich in T/C values a quarter to a half above the control, in often repeated tests (any T/C) and in doses without a T/C. Other doses and runs of a compound stand elsewhere. T/C gives the treated animals as a percentage of the vehicle group. Some doses have a count of surviving animals in place of a T/C: the source files T/C as zero there, which appears to mark a toxic dose or a test without result, not a measured value. Some doses without a T/C left all or most animals alive at the check, yet need not have been tolerated: survival well below the control is almost never listed, so the zero probably covers shortened survival too. Survivors were counted at the toxicity check, usually on the fifth day, unless a day is given; later deaths do not show. Schedule codes are those of the source, taken here to give the interval after Q, in days (D) or hours (H), and the number of doses after X. Some entries hold several experiments; the results are listed from low to high. Where survival is the endpoint, this PubChem deposit counts one and a half times the control or more as active, and values a quarter to a half above the control carry no call in these data; other NCI protocols may use other cut-offs. Marks such as (2×) say how often a value occurs here. Some T/C values carry the count of animals alive at the toxicity check (mostly the fifth day); without a count, all were alive then.

Test system: CD2F1 mice, L1210 leukemia ip, survival T/C
Experiment: NCI In Vivo Anticancer Drug Screen. Data for tumor model L1210 Leukemia (intraperitoneal) in CD2F1 (CDF1) mice
Settings: higher T/C = longer survival
Outline: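 Activity against a transplanted murine tumor was judged by comparing the compound group with a vehicle group. The outcome in the treated animals was divided by that in the controls.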

[1] = T/C endpoint: mean survival time, dose: 200.0 mg/kg/injection, schedule: Q04DX003 (ip), vehicle: saline with Tween-80
[2] = T/C endpoint: mean survival time, dose: 400.0 mg/kg/injection, schedule: Q01DX001 (ip), vehicle: saline
[3] = T/C endpoint: mean survival time, dose: 200.0 mg/kg/injection, schedule: Q04DX002 (ip), vehicle: saline with Tween-80
[4] = T/C endpoint: mean survival time, dose: 400.0 mg/kg/injection, schedule: Q04DX002 (ip), vehicle: saline with Tween-80
[5] = T/C endpoint: mean survival time, dose: 400.0 mg/kg/injection, schedule: Q04DX003 (ip), vehicle: saline with Tween-80
[6] = T/C endpoint: mean survival time, dose: 100.0 mg/kg/injection, schedule: Q01DX009 (ip), vehicle: saline with Tween-80
[7] = T/C endpoint: mean survival time, dose: 200.0 mg/kg/injection, schedule: Q04DX003 (ip), vehicle: saline
[8] = T/C endpoint: mean survival time, dose: 400.0 mg/kg/injection, schedule: Q04DX003 (ip), vehicle: saline
[9] = T/C endpoint: mean survival time, dose: 200.0 mg/kg/injection, schedule: Q01DX009 (ip), vehicle: saline with Tween-80
[10] = T/C endpoint: mean survival time, dose: 75.0 mg/kg/injection, schedule: Q01DX009 (ip), vehicle: Klucel (hydroxypropylcellulose) (HPC)

CCCC(=O)O.CCCC(=O)O.CCCC(=O)O.CCCC(=O)O.O=P1(N(CCCl)CCCl)NCCCO1.O=P1(N(CCCl)CCCl)NCCCO1.[Rh].[Rh] (stereo unspecified)
survivor count (T/C endpoint: mean survival time, dose: 2.0 mg/kg/injection, schedule: Q01DX001 (ip), vehicle: olive oil, sesame oil, peanut oil): 0 of 6 | survivor count (T/C endpoint: mean survival time, dose: 4.0 mg/kg/injection, schedule: Q01DX001 (ip), vehicle: olive oil, sesame oil, peanut oil): 1 of 6 | survivor count (T/C endpoint: mean survival time, dose: 8.0 mg/kg/injection, schedule: Q01DX001 (ip), vehicle: olive oil, sesame oil, peanut oil): 0 of 6 | survivor count (T/C endpoint: mean survival time, dose: 16.0 mg/kg/injection, schedule: Q01DX001 (ip), vehicle: olive oil, sesame oil, peanut oil): 0 of 6 | survivor count (T/C endpoint: mean survival time, dose: 31.25 mg/kg/injection, schedule: Q01DX001 (ip), vehicle: olive oil, sesame oil, peanut oil): 0 of 6 | survivor count (T/C endpoint: mean survival time, dose: 62.5 mg/kg/injection, schedule: Q01DX001 (ip), vehicle: olive oil, sesame oil, peanut oil): 0 of 6 | survivor count (T/C endpoint: mean survival time, dose: 125.0 mg/kg/injection, schedule: Q01DX001 (ip), vehicle: olive oil, sesame oil, peanut oil): 0 of 6 | survivor count (T/C endpoint: mean survival time, dose: 250.0 mg/kg/injection, schedule: Q01DX001 (ip), vehicle: olive oil, sesame oil, peanut oil): 0 of 6 | survivor count (T/C endpoint: mean survival time, dose: 500.0 mg/kg/injection, schedule: Q01DX001 (ip), vehicle: olive oil, sesame oil, peanut oil): 0 of 6

CC1CCC2CCCCC2[N-]1.CC1CCC2CCCCC2[N-]1.[Cl][Pt+2][Cl] (stereo unspecified)
survivor count [1]: 4 of 4

CC1(C)N=C(N)N=C(N)N1c1cc(Cl)cc(CCNC(=O)Nc2ccc(S(=O)(=O)F)cc2)c1
survivor count (T/C endpoint: mean survival time, dose: 200.0 mg/kg/injection, schedule: Q01DX001 (ip), vehicle: saline with Tween-80): 0 of 6 | survivor count (T/C endpoint: mean survival time, dose: 400.0 mg/kg/injection, schedule: Q01DX001 (ip), vehicle: saline with Tween-80): 0 of 6

CCC[CH2][Sn]1([CH2]CCC)[O]OC2(CCCCC2)[O]1
survivor count (T/C endpoint: mean survival time, dose: 10.0 mg/kg/injection, schedule: Q01DX009 (ip), vehicle: saline with Tween-80): 2 of 6

CCOC(=O)NCCBr
survivor count (T/C endpoint: mean survival time, dose: 300.0 mg/kg/injection, schedule: Q01DX007 (ip), vehicle: saline): 0 of 4 | survivor count (T/C endpoint: mean survival time, dose: 600.0 mg/kg/injection, schedule: Q01DX007 (ip), vehicle: saline): 0 of 4

Nc1ccn(C2OC(C(OC3OC(CO)C(O)C(N)C3O)C(O)C(O)C(O)C(O)CO)C(N)C(O)C2O)c(=O)n1 (stereo unspecified)
survivor count (T/C endpoint: mean survival time, dose: 0.8 mg/kg/injection, schedule: Q01DX005 (ip), vehicle: saline): 1 of 6 | survivor count (T/C endpoint: mean survival time, dose: 1.6 mg/kg/injection, schedule: Q01DX005 (ip), vehicle: saline): 0 of 6 | survivor count (T/C endpoint: mean survival time, dose: 3.2 mg/kg/injection, schedule: Q01DX005 (ip), vehicle: saline): 0 of 6

Cn1c(=O)c2c(ncn2CN2CCN(Cn3cnc4c3c(=O)n(C)c(=O)n4C)CC2)n(C)c1=O
survivor count [2]: 3 of 6

CC1C(=O)OC2C1CCC1(C)C3OC3C(=O)C3(C)OC231 (stereo unspecified)
survivor count [3]: 2 of 3 | survivor count [4]: 0 of 3

C(=N\N=C\c1ccco1)/c1ccco1
survivor count [5]: 1 of 6

CN(C)c1ccc(C(=C2C=CC(=[N+](C)C)C=C2)c2ccc(N(C)C)cc2)cc1 (tested in a mixture with another compound)
survivor count (T/C endpoint: mean survival time, dose: 5.0 mg/kg/injection, schedule: Q01DX009 (ip), vehicle: saline with Tween-80): 4 of 6 | survivor count (T/C endpoint: mean survival time, dose: 5.0 mg/kg/injection, schedule: Q01DX009 (ip), vehicle: suspension in saline): 5 of 6 | survivor count (T/C endpoint: mean survival time, dose: 10.0 mg/kg/injection, schedule: Q01DX009 (ip), vehicle: suspension in saline): 2 of 6

O=C(O)CN(CC(=O)O)C1CCCCC1N(CC(=O)O)CC(=O)O.[Cl][Pd][Cl] (stereo unspecified)
survivor count (T/C endpoint: median survival time, dose: 320.0 mg/kg/injection, schedule: Q04DX003 (ip), vehicle: saline): 1 of 6

O=[N+]([O-])c1cc2ccccc2c(O)c1O
survivor count [6]: 1 of 6 | survivor count [1]: 6 of 6 | survivor count [5]: 0 of 6

CC(NC(=O)OCc1ccccc1)C(=O)NC(CC(=O)O)C(=O)O (stereo unspecified)
survivor count [7]: 0 of 6 | survivor count [8]: 0 of 6

CCCCOc1ccc(NC(=O)CCl)cc1
survivor count [6]: 1 of 6

O=C1[O][Sb]23[O]C(=O)C([O]2)C(O)C(O)C2[O][Sb]4([O]C(=O)C([O]4)C(O)C(O)C1[O]3)[O]C2=O (stereo unspecified)
survivor count [7]: 4 of 6 | survivor count [2]: 3 of 6

Cc1ccc2c(c1)N=C(Nc1ccccc1)N=S2(C)=O (stereo unspecified)
survivor count [6]: 3 of 6 | survivor count [9]: 1 of 10

O=S(CCO)c1c(Cl)c(Cl)c(Cl)c(Cl)c1Cl (stereo unspecified)
survivor count [4]: 1 of 3

CCCNC1=C(C)C(=O)C2=C(C1=O)[C@H](COC(N)=O)[C@]1(OC)[C@@H]3N[C@@H]3CN21
T/C (T/C endpoint: median survival time, dose: 3.12 mg/kg/injection, schedule: Q01DX009 (ip), vehicle: saline): 128 % of control

CN(C)N=Nc1ccccc1C(=O)NC#N
T/C (T/C endpoint: mean survival time, dose: 18.75 mg/kg/injection, schedule: Q01DX009 (ip), vehicle: Klucel (hydroxypropylcellulose) (HPC)): 103, 113, 116, 121 % of control | T/C (T/C endpoint: mean survival time, dose: 37.5 mg/kg/injection, schedule: Q01DX009 (ip), vehicle: Klucel (hydroxypropylcellulose) (HPC)): 118, 125 (2×), 128 % of control | T/C [10]: 110 and 114 % of control [5 of 6 alive] | survivor count [10]: 0 of 6 and 3 of 6 | survivor count (T/C endpoint: mean survival time, dose: 150.0 mg/kg/injection, schedule: Q01DX009 (ip), vehicle: Klucel (hydroxypropylcellulose) (HPC)): 0 of 6 | survivor count (T/C endpoint: mean survival time, dose: 300.0 mg/kg/injection, schedule: Q01DX009 (ip), vehicle: Klucel (hydroxypropylcellulose) (HPC)): 0 of 6

CCC[CH2][Sn]1([CH2]CCC)[N](S(=O)(=O)c2ccc(C)cc2)c2ccccc2[N]1S(=O)(=O)c1ccc(C)cc1
survivor count (T/C endpoint: mean survival time, dose: 12.5 mg/kg/injection, schedule: Q04DX002 (ip), vehicle: saline with Tween-80): 0 of 3 | survivor count (T/C endpoint: mean survival time, dose: 25.0 mg/kg/injection, schedule: Q04DX002 (ip), vehicle: saline with Tween-80): 1 of 3 | survivor count (T/C endpoint: mean survival time, dose: 50.0 mg/kg/injection, schedule: Q04DX002 (ip), vehicle: saline with Tween-80): 0 of 3 | survivor count (T/C endpoint: mean survival time, dose: 100.0 mg/kg/injection, schedule: Q04DX002 (ip), vehicle: saline with Tween-80): 0 of 3 | survivor count [3]: 1 of 3 | survivor count [4]: 1 of 3

Cc1cc2c(cc1C)N(C(=O)CN1CCCCC1)CC(=O)N2
survivor count (T/C endpoint: mean survival time, dose: 300.0 mg/kg/injection, schedule: Q04DX003 (ip), vehicle: saline): 0 of 6

CC(Cc1ccc2c(c1)OCO2)NCC(O)c1ccc(O)c(O)c1 (stereo unspecified)
survivor count [2]: 0 of 6

BrC1c2cccc3cccc(c23)C1Br (stereo unspecified)
survivor count [9]: 5 of 6

Cc1nc(C(Cl)(Cl)Cl)[nH]c(=O)c1SCCO
T/C (T/C endpoint: median survival time, dose: 50.0 mg/kg/injection, schedule: Q01DX009 (ip), vehicle: distilled water + alcohol): 97, 101, 102, 109 % of control | T/C (T/C endpoint: median survival time, dose: 100.0 mg/kg/injection, schedule: Q01DX009 (ip), vehicle: distilled water + alcohol): 101, 105, 110, 113 % of control | T/C (T/C endpoint: median survival time, dose: 200.0 mg/kg/injection, schedule: Q01DX009 (ip), vehicle: distilled water + alcohol): 100, 106, 121, 126 % of control | T/C (T/C endpoint: median survival time, dose: 400.0 mg/kg/injection, schedule: Q01DX009 (ip), vehicle: distilled water + alcohol): 104 [5 of 6 alive], 117 [4 of 6 alive], 137 [4 of 6 alive], 162 % of control [5 of 6 alive] | survivor count (T/C endpoint: median survival time, dose: 400.0 mg/kg/injection, schedule: Q01DX009 (sc), vehicle: distilled water + Tween-80 + alcohol): 3 of 6

SCC1=NCCN1
survivor count (T/C endpoint: mean survival time, dose: 200.0 mg/kg/injection, schedule: Q04DX002 (ip), vehicle: saline): 0 of 3 | survivor count (T/C endpoint: mean survival time, dose: 400.0 mg/kg/injection, schedule: Q04DX002 (ip), vehicle: saline): 0 of 3

CO/N=C(/c1ccccc1)c1cc[n+](C)cc1
survivor count (T/C endpoint: mean survival time, dose: 150.0 mg/kg/injection, schedule: Q04DX003 (ip), vehicle: saline): 4 of 6 | survivor count (T/C endpoint: mean survival time, dose: 300.0 mg/kg/injection, schedule: Q01DX001 (ip), vehicle: saline): 1 of 6

Cn1c(CC(O)(C(F)(F)F)C(F)(F)F)cc(=O)n1-c1ccccc1
survivor count [5]: 6 of 6

C1CN2CCC1C1(C2)SSC2(CN3CCC2CC3)S1 (stereo unspecified)
survivor count (T/C endpoint: mean survival time, dose: 100.0 mg/kg/injection, schedule: Q04DX003 (ip), vehicle: saline): 0 of 6 | survivor count [7]: 0 of 6 | survivor count [8]: 0 of 6
